# Reference: paper doi:10.1101/2022.11.22.517009
# Protein sequences, listed by entry. Tags and fused reporters are not part of them.
# UniProt Q07666: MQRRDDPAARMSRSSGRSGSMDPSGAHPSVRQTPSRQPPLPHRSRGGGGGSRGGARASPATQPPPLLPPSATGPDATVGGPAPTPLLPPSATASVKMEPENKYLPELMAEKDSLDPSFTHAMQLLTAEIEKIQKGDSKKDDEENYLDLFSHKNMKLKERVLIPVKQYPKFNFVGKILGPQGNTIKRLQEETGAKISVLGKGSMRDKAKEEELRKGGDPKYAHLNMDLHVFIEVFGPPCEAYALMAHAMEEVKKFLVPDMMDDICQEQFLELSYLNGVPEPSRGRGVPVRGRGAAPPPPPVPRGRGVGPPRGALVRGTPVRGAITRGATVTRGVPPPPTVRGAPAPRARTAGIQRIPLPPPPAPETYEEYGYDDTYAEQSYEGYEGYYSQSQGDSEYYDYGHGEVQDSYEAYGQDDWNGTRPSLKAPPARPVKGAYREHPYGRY
# UniProt P62993: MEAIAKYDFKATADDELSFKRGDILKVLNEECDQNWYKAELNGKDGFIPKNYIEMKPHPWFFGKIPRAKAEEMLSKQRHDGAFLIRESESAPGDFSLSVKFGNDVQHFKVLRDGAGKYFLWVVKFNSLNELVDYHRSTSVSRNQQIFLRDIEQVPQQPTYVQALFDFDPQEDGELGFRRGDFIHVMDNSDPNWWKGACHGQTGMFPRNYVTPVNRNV
# No constants are given. Whether binding was seen depends on the method and setting. Binding seen in cells or lysates may run through a third protein. Some entries that bind do so weakly or less than the wild type.
# Molecular target: Src-Associated in Mitosis 68 kDa protein (SAM68/KHDRBS1) (human (endogenous in Beas2B)) (UniProt Q07666)
# Assay: co-IP
substance,measurement,value
Grb2 (from UniProt P62993 1-217),binding,binds
